Data as given in US7807783.
Results are given in words; binding and its absence hold for the method and conditions named. For part of these data: Binding seen in cells or lysates may run through a third protein. Some entries that bind do so weakly or less than the wild type. One block for each substance: values may come before it.

Chains of the proteins cited; added tags and fusions are not shown. Lines headed by an entry give the natural chain unless they say otherwise; changes in a name come on top. Residues count along the entry.
UniProt P25445, residues 191-335: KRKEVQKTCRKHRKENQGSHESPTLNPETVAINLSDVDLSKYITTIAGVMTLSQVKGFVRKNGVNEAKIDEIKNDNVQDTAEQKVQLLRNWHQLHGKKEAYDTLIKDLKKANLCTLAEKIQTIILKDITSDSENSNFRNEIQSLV
UniProt P04386: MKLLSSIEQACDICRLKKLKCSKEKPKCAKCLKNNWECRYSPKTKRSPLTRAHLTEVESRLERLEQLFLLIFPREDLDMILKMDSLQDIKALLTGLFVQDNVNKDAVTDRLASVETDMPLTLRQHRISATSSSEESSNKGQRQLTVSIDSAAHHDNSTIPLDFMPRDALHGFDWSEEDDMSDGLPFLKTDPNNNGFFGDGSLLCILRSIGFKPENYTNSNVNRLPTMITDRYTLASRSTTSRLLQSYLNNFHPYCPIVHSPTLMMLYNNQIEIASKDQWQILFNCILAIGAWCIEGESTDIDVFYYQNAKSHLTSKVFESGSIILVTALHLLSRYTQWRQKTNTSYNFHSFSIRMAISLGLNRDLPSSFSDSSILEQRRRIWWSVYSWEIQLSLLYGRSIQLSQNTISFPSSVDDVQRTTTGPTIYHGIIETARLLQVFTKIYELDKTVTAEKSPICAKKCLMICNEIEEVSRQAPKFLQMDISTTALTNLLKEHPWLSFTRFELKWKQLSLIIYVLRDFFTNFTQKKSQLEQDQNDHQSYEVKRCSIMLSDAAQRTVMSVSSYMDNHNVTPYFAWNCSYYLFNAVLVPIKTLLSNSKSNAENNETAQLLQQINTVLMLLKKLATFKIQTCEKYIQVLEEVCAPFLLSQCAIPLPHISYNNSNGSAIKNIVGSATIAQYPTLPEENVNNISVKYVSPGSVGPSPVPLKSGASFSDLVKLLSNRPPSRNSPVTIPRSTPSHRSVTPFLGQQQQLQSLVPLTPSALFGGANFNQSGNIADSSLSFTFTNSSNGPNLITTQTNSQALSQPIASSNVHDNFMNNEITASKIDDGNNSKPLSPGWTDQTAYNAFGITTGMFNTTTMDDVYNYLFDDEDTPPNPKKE
UniProt Q13158: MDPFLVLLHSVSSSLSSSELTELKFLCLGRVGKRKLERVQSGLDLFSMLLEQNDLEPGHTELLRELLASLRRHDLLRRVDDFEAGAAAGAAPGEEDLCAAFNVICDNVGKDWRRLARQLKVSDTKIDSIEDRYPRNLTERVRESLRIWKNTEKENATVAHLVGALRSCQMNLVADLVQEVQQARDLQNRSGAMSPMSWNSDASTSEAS

Assays:
[1] = molecular target: GST-Fas (GST fusion protein containing the cytoplasmic domain of Fas) (UniProt P25445); assay: GST pull-down from lysates of transfected 293T cells
[2] = molecular target: T1, GAL4 DNA-binding domain fused to the cytoplasmic tail of the human Fas antigen (GAL4bd-Fas) (human) (UniProt P04386+P25445); assay: yeast two-hybrid
[3] = molecular target: T1, GAL4 DNA-binding domain fused to the cytoplasmic tail of the human Fas antigen (GAL4bd-Fas) (human); assay: yeast two-hybrid, β-galactosidase filter assay in Y190 yeast
[4] = molecular target: GST-Fas (GST fusion protein containing the cytoplasmic domain of Fas) (UniProt P25445); assay: GST pull-down on glutathione-Sepharose beads
[5] = molecular target: GST-Fas (GST fusion protein containing the cytoplasmic domain of Fas) (UniProt P25445); assay: GST pull-down from lysates of 293T cells expressing HA-FADD, then anti-HA immunoprecipitation
[6] = molecular target: GST-Fas (GST fusion protein containing the cytoplasmic domain of Fas) (UniProt P25445); assay: GST pull-down of 35S-labeled in vitro translated FADD, SDS-PAGE and autoradiography

binding [1]: binds
Substance: AU1-epitope tagged FADD (AU1-FADD) (from UniProt Q13158 1-208)

binding [2]: binds
binding [3]: binds
Substance: GAL4 activation domain-FADD fusion protein (GAL4ad-FADD) (from UniProt Q13158 1-208)

binding [4]: binds
binding [5]: binds
binding [6]: binds
Substance: HA-epitope tagged FADD (HA-FADD) (from UniProt Q13158 1-208)
